Reference: article PMC6385231, “Activity-Regulated Cytoskeleton-Associated Protein (Arc/Arg3.1) is Transiently Expressed after Heat Shock Stress and Suppresses Heat Shock Factor 1” (Scientific Reports, 2019)
Results are given in words; binding and its absence hold for the method and conditions named. Binding seen in cells or lysates may run through a third protein. Some results given as binding are weak or reduced against the parent protein; the word gives no strength. Where a sequence is shown, tags or fusion partners need not be part of it.

Protein sequences, listed by entry. Tags and fused reporters are not part of them.
UniProt P15311: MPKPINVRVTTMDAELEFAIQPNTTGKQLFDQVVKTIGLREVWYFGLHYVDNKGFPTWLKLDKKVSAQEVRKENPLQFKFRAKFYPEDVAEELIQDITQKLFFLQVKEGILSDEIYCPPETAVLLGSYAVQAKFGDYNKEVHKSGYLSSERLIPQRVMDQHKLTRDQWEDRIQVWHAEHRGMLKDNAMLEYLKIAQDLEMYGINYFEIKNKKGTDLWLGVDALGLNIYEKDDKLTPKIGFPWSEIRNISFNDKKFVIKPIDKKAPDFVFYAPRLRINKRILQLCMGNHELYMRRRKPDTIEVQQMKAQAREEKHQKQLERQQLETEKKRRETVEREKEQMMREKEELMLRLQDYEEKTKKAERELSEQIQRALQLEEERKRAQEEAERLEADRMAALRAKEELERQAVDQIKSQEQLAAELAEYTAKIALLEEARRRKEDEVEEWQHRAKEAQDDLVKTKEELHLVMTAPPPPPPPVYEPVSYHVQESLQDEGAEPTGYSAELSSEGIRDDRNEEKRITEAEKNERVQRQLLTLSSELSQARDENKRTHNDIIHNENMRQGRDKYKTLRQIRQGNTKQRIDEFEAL
UniProt Q00613: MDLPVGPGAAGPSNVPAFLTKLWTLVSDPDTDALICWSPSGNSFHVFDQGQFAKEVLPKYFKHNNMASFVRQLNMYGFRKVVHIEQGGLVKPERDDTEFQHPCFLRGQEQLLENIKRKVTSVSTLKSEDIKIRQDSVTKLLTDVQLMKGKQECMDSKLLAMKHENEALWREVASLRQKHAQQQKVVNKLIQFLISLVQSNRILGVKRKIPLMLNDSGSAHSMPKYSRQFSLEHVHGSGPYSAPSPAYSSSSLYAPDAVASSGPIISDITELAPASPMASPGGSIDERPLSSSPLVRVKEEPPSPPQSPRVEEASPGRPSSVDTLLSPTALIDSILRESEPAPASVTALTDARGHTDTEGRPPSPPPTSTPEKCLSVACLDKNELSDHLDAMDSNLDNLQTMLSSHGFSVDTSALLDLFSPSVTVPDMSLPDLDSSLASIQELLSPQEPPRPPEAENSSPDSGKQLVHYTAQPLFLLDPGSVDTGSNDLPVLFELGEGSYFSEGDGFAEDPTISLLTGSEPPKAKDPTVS

Key:
[1] = biological target: T1, Flag-tagged human Arc/Arg3.1 (activity-regulated cytoskeleton-associated protein) (human) (UniProt Q7LC44); assay: co-IP; HEK293T cells co-transfected, heat shock at 45°C for 15 min; lysate immunoprecipitated with anti-Flag antibody and protein-G sepharose at 4°C; Western analysis with anti-HA and anti-Flag
T1 sequence: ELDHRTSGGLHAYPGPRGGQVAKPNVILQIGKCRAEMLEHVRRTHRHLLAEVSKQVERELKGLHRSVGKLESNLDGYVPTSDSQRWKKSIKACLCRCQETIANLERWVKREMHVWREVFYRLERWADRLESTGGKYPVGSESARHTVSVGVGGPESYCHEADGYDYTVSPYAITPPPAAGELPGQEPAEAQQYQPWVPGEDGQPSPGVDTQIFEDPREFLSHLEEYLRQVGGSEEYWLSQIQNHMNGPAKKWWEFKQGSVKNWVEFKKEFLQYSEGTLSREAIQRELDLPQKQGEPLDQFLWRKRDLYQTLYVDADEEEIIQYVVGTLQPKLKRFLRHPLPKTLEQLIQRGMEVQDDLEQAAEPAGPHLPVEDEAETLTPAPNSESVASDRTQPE

[2] = biological target: T1, Flag-tagged human Arc/Arg3.1 (activity-regulated cytoskeleton-associated protein) (human); assay: co-IP; HEK293T cells co-transfected, control cells without heat shock; lysate immunoprecipitated with anti-Flag antibody and protein-G sepharose at 4°C; Western analysis with anti-HA and anti-Flag

| binding [1] | Substance | binding [2] |
| --- | --- | --- |
| no binding | HA-ezrin (from UniProt P15311 1-586) | no binding |
| binds | HA-tagged heat shock factor 1 (from UniProt Q00613 1-529) | no binding (condition: cells without heat shock) |
